No constants are given. Whether binding was seen depends on the method and setting. In cells and extracts the contact can be indirect. Some binding calls cover weakened binding; strength is not graded here. Where a sequence is shown, tags or fusion partners need not be part of it.

Amino acid sequences for entries named in this document (tags omitted).
UniProt Q13485: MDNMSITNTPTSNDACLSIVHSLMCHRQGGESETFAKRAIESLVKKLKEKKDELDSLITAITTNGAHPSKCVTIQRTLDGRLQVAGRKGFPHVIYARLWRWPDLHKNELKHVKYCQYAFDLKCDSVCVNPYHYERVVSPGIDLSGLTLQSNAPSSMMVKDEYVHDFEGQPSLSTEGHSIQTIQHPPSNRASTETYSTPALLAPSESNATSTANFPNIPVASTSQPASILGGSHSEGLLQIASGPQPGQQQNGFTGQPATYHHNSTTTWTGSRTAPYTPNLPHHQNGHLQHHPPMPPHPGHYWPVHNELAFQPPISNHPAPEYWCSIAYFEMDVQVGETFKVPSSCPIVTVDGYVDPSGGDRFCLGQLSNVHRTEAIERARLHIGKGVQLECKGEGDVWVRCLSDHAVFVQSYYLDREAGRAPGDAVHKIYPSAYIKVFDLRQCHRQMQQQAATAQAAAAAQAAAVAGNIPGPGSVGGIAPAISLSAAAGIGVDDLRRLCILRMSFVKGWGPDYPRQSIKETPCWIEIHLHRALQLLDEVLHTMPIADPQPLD

In the assay the target is MYC-tagged SMAD4 (UniProt Q13485). The assay can be described thus: co-IP; FLAG-TINAGL1 and MYC-SMAD4 co-transfected into human primary intestinal fibroblasts; lysates incubated with anti-MYC and anti-FLAG antibodies overnight at 4 °C, Protein A/G beads, Western blot with anti-FLAG and anti-MYC; methods say lysates were prepared after treatment with TINAGL1 recombinant protein. In general terms: In western blotting, separated proteins are transferred to a membrane and probed.

B1: FLAG-tagged TINAGL1 (Tubulointerstitial Nephritis Antigen-Like 1) (protein, UniProt Q9GZM7 22-467)
chain: AQQGRGRRELAPGLHLRGIRDAGGRYCQEQDLCCRGRADDCALPYLGAICYCDLFCNRTVSDCCPDFWDFCLGVPPPFPPIQGCMHGGRIYPVLGTYWDNCNRCTCQENRQWQCDQEPCLVDPDMIKAINQGNYGWQAGNHSAFWGMTLDEGIRYRLGTIRPSSSVMNMHEIYTVLNPGEVLPTAFEASEKWPNLIHEPLDQGNCAGSWAFSTAAVASDRVSIHSLGHMTPVLSPQNLLSCDTHQQQGCRGGRLDGAWWFLRRRGVVSDHCYPFSGRERDEAGPAPPCMMHSRAMGRGKRQATAHCPNSYVNNNDIYQVTPVYRLGSNDKEIMKELMENGPVQALMEVHEDFFLYKGGIYSHTPVSLGRPERYRRHGTHSVKITGWGEETLPDGRTLKYWTAANSWGPAWGERGHFRIVRGVNECDIESFVLGVWGRVGMEDMGHH
As to B1, the binding entry is recorded as “binds”.

The values above are taken from article PMC11976418.
